Results on 7 molecules are retold here after paper PMC7465057.

The chains behind the UniProt entries cited, without tags or fusion partners.
UniProt P28482: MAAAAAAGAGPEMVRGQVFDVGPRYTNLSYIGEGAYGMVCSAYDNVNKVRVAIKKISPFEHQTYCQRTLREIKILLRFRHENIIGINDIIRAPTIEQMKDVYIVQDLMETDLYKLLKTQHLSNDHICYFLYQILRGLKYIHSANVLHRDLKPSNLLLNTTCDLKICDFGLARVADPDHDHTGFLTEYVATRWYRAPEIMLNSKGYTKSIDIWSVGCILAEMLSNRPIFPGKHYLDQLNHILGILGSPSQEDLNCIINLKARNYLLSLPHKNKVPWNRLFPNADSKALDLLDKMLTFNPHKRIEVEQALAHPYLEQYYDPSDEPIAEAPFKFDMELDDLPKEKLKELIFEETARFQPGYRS

Results are given in words; binding and its absence hold for the method and conditions named. In cells and extracts the contact can be indirect. These calls come from enrichment with a bait or labelling near it, and not all partners need be listed. Sequences can lack the tags named with a protein.

This assay addresses T1, CD83-3×Flag (human CD83, full length, with C-terminal 3×Flag tag) (human) (UniProt Q01151).
T1 sequence: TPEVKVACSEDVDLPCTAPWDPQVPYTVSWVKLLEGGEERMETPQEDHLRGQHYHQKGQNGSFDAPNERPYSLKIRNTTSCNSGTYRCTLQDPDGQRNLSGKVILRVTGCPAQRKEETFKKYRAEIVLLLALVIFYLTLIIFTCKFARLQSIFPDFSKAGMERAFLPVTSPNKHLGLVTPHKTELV
Kind of assay: affinity purification with mass spectrometry; CD83-3×Flag-expressing stable cells and control cells lysed, immunoprecipitated with anti-Flag magnetic beads; SDS-PAGE, Coomassie bands excised, in-gel trypsin digestion, LC-MS/MS; at least two peptides.

Turning to MAPK1 (from UniProt P28482 1-360), the binding result is “binds”.

B1: MAP2K4 (protein, UniProt P45985 1-399)
chain: MAAPSPSGGGGSGGGSGSGTPGPVGSPAPGHPAVSSMQGKRKALKLNFANPPFKSTARFTLNPNPTGVQNPHIERLRTHSIESSGKLKISPEQHWDFTAEDLKDLGEIGRGAYGSVNKMVHKPSGQIMAVKRIRSTVDEKEQKQLLMDLDVVMRSSDCPYIVQFYGALFREGDCWICMELMSTSFDKFYKYVYSVLDDVIPEEILGKITLATVKALNHLKENLKIIHRDIKPSNILLDRSGNIKLCDFGISGQLVDSIAKTRDAGCRPYMAPERIDPSASRQGYDVRSDVWSLGITLYELATGRFPYPKWNSVFDQLTQVVKGDPPQLSNSEEREFSPSFINFVNLCLTKDESKRPKYKELLKHPFILMYEERAVEVACYVCKILDQMPATPSSPMYVD
With B1, the binding entry is given as “binds”.

B2: TGF-beta activated kinase 1 (MAP3K7) binding protein 3 (TAB3) (protein, UniProt Q8N5C8 1-712)
chain: MAQSSPQLDIQVLHDLRQRFPEIPEGVVSQCMLQNNNNLEACCRALSQESSKYLYMEYHSPDDNRMNRNRLLHINLGIHSPSSYHPGDGAQLNGGRTLVHSSSDGHIDPQHAAGKQLICLVQEPHSAPAVVAATPNYNPFFMNEQNRSAATPPSQPPQQPSSMQTGMNPSAMQGPSPPPPPPSYMHIPRYSTNPITVTVSQNLPSGQTVPRALQILPQIPSNLYGSPGSIYIRQTSQSSSGRQTPQSTPWQSSPQGPVPHYSQRPLPVYPHQQNYQPSQYSPKQQQIPQSAYHSPPPSQCPSPFSSPQHQVQPSQLGHIFMPPSPSTTPPHPYQQGPPSYQKQGSHSVAYLPYTASSLSKGSMKKIEITVEPSQRPGTAINRSPSPISNQPSPRNQHSLYTATTPPSSSPSRGISSQPKPPFSVNPVYITYTQPTGPSCTPSPSPRVIPNPTTVFKITVGRATTENLLNLVDQEERSAAPEPIQPISVIPGSGGEKGSHKYQRSSSSGSDDYAYTQALLLHQRARMERLAKQLKLEKEELERLKSEVNGMEHDLMQRRLRRVSCTTAIPTPEEMTRLRSMNRQLQINVDCTLKEVDLLQSRGNFDPKAMNNFYDNIEPGPVVPPKPSKKDSSDPCTIERKARRISVTSKVQADIHDTQAAAADEHRTGSTQSPRTQPRDEDYEGAPWNCDSCTFLNHPALNRCEQCEMPRYT
On to B2, for which the binding result is reported as “binds”.

B3: mitogen-activated protein kinase kinase kinase 7 (MAP3K7) (protein, UniProt O43318 1-606)
chain: MSTASAASSSSSSSAGEMIEAPSQVLNFEEIDYKEIEVEEVVGRGAFGVVCKAKWRAKDVAIKQIESESERKAFIVELRQLSRVNHPNIVKLYGACLNPVCLVMEYAEGGSLYNVLHGAEPLPYYTAAHAMSWCLQCSQGVAYLHSMQPKALIHRDLKPPNLLLVAGGTVLKICDFGTACDIQTHMTNNKGSAAWMAPEVFEGSNYSEKCDVFSWGIILWEVITRRKPFDEIGGPAFRIMWAVHNGTRPPLIKNLPKPIESLMTRCWSKDPSQRPSMEEIVKIMTHLMRYFPGADEPLQYPCQYSDEGQSNSATSTGSFMDIASTNTSNKSDTNMEQVPATNDTIKRLESKLLKNQAKQQSESGRLSLGASRGSSVESLPPTSEGKRMSADMSEIEARIAATTAYSKPKRGHRKTASFGNILDVPEIVISGNGQPRRRSIQDLTVTGTEPGQVSSRSSSPSVRMITTSGPTSEKPTRSHPWTPDDSTDTNGSDNSIPMAYLTLDHQLQPLAPCPNSKESMAVFEQHCKMAQEYMKVQTEIALLLQRKQELVAELDQDEKDQQNTSRLVQEHKKLLDENKSLSTYYQQCKKQLEVIRSQQQKRQGTS
For the molecule B3, the binding entry is “binds”.

B4: TGF-beta activated kinase 1 (MAP3K7) binding protein 2 (TAB2) (protein, UniProt Q9NYJ8 1-693)
chain: MAQGSHQIDFQVLHDLRQKFPEVPEVVVSRCMLQNNNNLDACCAVLSQESTRYLYGEGDLNFSDDSGISGLRNHMTSLNLDLQSQNIYHHGREGSRMNGSRTLTHSISDGQLQGGQSNSELFQQEPQTAPAQVPQGFNVFGMSSSSGASNSAPHLGFHLGSKGTSSLSQQTPRFNPIMVTLAPNIQTGRNTPTSLHIHGVPPPVLNSPQGNSIYIRPYITTPGGTTRQTQQHSGWVSQFNPMNPQQVYQPSQPGPWTTCPASNPLSHTSSQQPNQQGHQTSHVYMPISSPTTSQPPTIHSSGSSQSSAHSQYNIQNISTGPRKNQIEIKLEPPQRNNSSKLRSSGPRTSSTSSSVNSQTLNRNQPTVYIAASPPNTDELMSRSQPKVYISANAATGDEQVMRNQPTLFISTNSGASAASRNMSGQVSMGPAFIHHHPPKSRAIGNNSATSPRVVVTQPNTKYTFKITVSPNKPPAVSPGVVSPTFELTNLLNHPDHYVETENIQHLTDPTLAHVDRISETRKLSMGSDDAAYTQALLVHQKARMERLQRELEIQKKKLDKLKSEVNEMENNLTRRRLKRSNSISQIPSLEEMQQLRSCNRQLQIDIDCLTKEIDLFQARGPHFNPSAIHNFYDNIGFVGPVPPKPKDQRSIIKTPKTQDTEDDEGAQWNCTACTFLNHPALIRCEQCEMPRHF
Consider B4, for which the binding result was “binds”.

B5: TGF-beta activated kinase 1 (MAP3K7) binding protein 1 (TAB1) (protein, UniProt Q15750 1-504)
chain: MAAQRRSLLQSEQQPSWTDDLPLCHLSGVGSASNRSYSADGKGTESHPPEDSWLKFRSENNCFLYGVFNGYDGNRVTNFVAQRLSAELLLGQLNAEHAEADVRRVLLQAFDVVERSFLESIDDALAEKASLQSQLPEGVPQHQLPPQYQKILERLKTLEREISGGAMAVVAVLLNNKLYVANVGTNRALLCKSTVDGLQVTQLNVDHTTENEDELFRLSQLGLDAGKIKQVGIICGQESTRRIGDYKVKYGYTDIDLLSAAKSKPIIAEPEIHGAQPLDGVTGFLVLMSEGLYKALEAAHGPGQANQEIAAMIDTEFAKQTSLDAVAQAVVDRVKRIHSDTFASGGERARFCPRHEDMTLLVRNFGYPLGEMSQPTPSPAPAAGGRVYPVSVPYSSAQSTSKTSVTLSLVMPSQGQMVNGAHSASTLDEATPTLTNQSPTLTLQSTNTHTQSSSSSSDGGLFRSRPAHSLPPGEDGRVEPYVDFAEFYRLWSVDHGEQSVVTAP
Turning to B5, the binding entry is “binds”.

B6: MAP2K3 (protein, UniProt P46734 1-347)
chain: MESPASSQPASMPQSKGKSKRKKDLRISCMSKPPAPNPTPPRNLDSRTFITIGDRNFEVEADDLVTISELGRGAYGVVEKVRHAQSGTIMAVKRIRATVNSQEQKRLLMDLDINMRTVDCFYTVTFYGALFREGDVWICMELMDTSLDKFYRKVLDKNMTIPEDILGEIAVSIVRALEHLHSKLSVIHRDVKPSNVLINKEGHVKMCDFGISGYLVDSVAKTMDAGCKPYMAPERINPELNQKGYNVKSDVWSLGITMIEMAILRFPYESWGTPFQQLKQVVEEPSPQLPADRFSPEFVDFTAQCLRKNPAERMSYLELMEHPFFTLHKTKKTDIAAFVKEILGEDS
For B6, the binding entry is “binds”.
